Measured values reported in US20220023385A1.
These are yes or no findings as the source states them, for the method shown. Some entries that bind do so weakly or less than the wild type. Where a sequence is shown, tags or fusion partners need not be part of it.

Target: T1, Met-Fc fusion protein (R&D Systems) labeled with Alexa 488, P08581
T1 chain: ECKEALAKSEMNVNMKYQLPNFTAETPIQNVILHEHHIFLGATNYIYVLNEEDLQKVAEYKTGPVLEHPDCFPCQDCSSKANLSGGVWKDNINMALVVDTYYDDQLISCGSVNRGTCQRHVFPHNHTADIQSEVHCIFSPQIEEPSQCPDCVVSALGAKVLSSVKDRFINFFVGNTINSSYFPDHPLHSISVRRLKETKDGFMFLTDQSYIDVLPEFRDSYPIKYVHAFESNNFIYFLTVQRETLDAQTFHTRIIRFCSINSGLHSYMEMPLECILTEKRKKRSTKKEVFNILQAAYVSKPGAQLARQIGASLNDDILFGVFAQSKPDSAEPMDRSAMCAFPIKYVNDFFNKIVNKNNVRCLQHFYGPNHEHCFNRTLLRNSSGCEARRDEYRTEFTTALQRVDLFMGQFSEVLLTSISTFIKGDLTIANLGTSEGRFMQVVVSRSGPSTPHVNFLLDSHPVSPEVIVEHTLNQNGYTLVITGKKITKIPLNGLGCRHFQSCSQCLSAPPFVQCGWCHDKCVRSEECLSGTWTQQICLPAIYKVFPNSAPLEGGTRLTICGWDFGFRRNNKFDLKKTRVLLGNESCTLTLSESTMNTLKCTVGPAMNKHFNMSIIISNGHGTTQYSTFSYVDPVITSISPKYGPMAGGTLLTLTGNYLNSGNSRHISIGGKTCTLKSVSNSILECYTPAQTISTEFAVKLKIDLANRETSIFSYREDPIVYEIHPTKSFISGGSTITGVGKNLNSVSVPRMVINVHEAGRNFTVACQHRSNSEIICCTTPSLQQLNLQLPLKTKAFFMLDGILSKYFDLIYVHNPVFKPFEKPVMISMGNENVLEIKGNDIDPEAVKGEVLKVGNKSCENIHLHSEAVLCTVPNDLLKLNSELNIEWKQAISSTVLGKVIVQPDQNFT
Assay: flow cytometry, yeast display, 20 or 200 nM Met-Fc labeled with Alexa 488, with and without 2 µM heparin
Details: remark: other sources report otherwise

B1: wild-type NK1 Isoform 1 displayed on yeast, P14210 28-210 (ligand)
chain: YAEGQRKRRNTIHEFKKSAKTTLIKIDPALKIKTKKVNTADQCANRCTRNKGLPFTCKAFVFDKARKQCLWFPFNSMSSGVKKEFGHEFDLYENKDYIRNCIIGKGRSYKGTVSITKSGIKCQPWSSMIPHEHSFLPSSYRGKDLQENYCRNPRGEEGGPWCFTSNPEVRYEVCDIPQCSEVE
modifications: here or on the partner: Alexa 488 label
In the case of B1, the binding is reported as “binds”.
